Measurements reported in PubChem BioAssay AID1259308 (NCATS, 2017).
Here is one part, drawn at random, of about 59,000 reagents. Of all reagents, about 1,510 (2.6%) got an active call. 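Calls use total luciferase alone and ignore viability, so some active siRNAs may act by altering cell number.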 Entries without a mark were called inactive. Not all columns of the deposit are shown.

- Aim: 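Knock-downs that increase output of a recombinant reporter protein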 (primary screen)
- Cells: human HEK293 embryonic kidney cells stably expressing firefly luciferase (HEK-CMV-Luc2-Hygro)
- Knock-down reagent: single siRNA against human genes, 0.8 pmol siRNA per well
- Duration: 72 h
- Measurement: 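Reporter luminescence and viable-cell signal on separate replicate plates, given as percent of non-targeting control and median/MAD z-scores, plus per-cell luciferase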
- Reading the numbers: total luciferase, z-score: higher = more reporter protein produced
- Hit rule: 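An siRNA counts as active if its total luciferase robust z-score exceeds 3; genes with two or more such siRNAs out of three were retested with fresh siRNAs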
- Calls: active = raised luciferase; inactive = no rise

VAC14 [SID160744112] scored total luciferase, z-score 0.855. Against VAC14 [SID160744113], the values are total luciferase, z-score -0.163. VAC14 [SID160744114] gave total luciferase, z-score -0.0983. LRCOL1 [SID160769499] gave total luciferase, z-score 2.16. After knock-down of LRCOL1 [SID160769500], the screen gave total luciferase, z-score 3.25 (active). LRCOL1 [SID160769501] showed total luciferase, z-score -0.471.

Active calls (from the list above):
LRCOL1 [SID160769500] — total luciferase, z-score = 3.25 (active)

Next reagents follow:
After knock-down of BUB1 [SID160729341], the screen gave total luciferase, z-score -0.78. After knock-down of BUB1 [SID160729351], the screen gave total luciferase, z-score 0.778. BUB1 [SID160729362] gave total luciferase, z-score 0.741. Silencing of SH3TC1 [SID160741673] resulted in: total luciferase, z-score 3.43 (active). SH3TC1 [SID160741674] showed total luciferase, z-score -0.104. After knock-down of SH3TC1 [SID160741675], the screen gave total luciferase, z-score 0.349.
